Experimental data: paper PMC10831248, “Characterization of membrane protein interactions by peptidisc-mediated mass photometry” (iScience, 2024)
Results are given in words; binding and its absence hold for the method and conditions named. Some entries that bind do so weakly or less than the wild type.

T1: vitamin B12 ABC transporter BtuCD, reconstituted in peptidiscs (E. coli) (UniProt P06609+P06611)
T1 sequence 1: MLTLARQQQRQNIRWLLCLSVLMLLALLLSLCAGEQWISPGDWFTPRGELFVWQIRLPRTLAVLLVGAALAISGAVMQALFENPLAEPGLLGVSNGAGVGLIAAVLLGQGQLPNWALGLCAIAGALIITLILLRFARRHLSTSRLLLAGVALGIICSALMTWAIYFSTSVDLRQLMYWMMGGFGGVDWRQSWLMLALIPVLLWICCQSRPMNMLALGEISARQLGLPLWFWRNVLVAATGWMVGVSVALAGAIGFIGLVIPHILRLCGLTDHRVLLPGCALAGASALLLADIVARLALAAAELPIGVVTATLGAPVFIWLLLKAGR
T1 sequence 2: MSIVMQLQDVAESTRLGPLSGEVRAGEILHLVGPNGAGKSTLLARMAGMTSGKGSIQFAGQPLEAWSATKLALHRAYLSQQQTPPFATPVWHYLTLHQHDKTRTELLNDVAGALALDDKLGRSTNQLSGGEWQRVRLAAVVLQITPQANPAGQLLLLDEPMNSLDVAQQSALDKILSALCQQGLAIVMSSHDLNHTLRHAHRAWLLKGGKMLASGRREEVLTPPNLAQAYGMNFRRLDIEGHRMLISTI

T2: BtuC subunit of BtuCD (E. coli) (UniProt P06609)
T2 sequence: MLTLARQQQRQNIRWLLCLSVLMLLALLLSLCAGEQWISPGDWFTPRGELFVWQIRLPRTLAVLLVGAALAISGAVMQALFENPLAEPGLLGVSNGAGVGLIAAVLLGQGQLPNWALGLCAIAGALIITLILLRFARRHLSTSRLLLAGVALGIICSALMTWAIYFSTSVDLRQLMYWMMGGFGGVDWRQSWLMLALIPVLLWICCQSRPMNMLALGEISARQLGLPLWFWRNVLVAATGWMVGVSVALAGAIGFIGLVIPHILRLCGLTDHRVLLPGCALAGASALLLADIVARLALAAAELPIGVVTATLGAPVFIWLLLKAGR


Experiments:
[1] = target: T1, vitamin B12 ABC transporter BtuCD, reconstituted in peptidiscs (E. coli); assay: mass photometry; as a1, but with 1 mM ATP in all mixtures; both purified
[2] = target: T1, vitamin B12 ABC transporter BtuCD, reconstituted in peptidiscs (E. coli); assay: mass photometry; BtuCD in peptidiscs held at ~200 nM, mixed with BtuF (molar excess; titration 0-1200 nM by the methods, 0 to 900 nM by the results); PBS plus 5 mM MgCl2, room temperature, 30 min; 2 uL diluted into 20 uL PBS just before measuring; no ATP; in solution, nothing immobilised; both purified
[3] = target: T2, BtuC subunit of BtuCD (E. coli); assay: mass photometry; SEC fractions of His-tagged membrane proteins purified on Ni-NTA and reconstituted into peptidiscs, diluted 100-fold in PBS to ~5-20 nM; main species: subunits together in the native oligomer or complex in one disc; both purified

Row | binding [3] | Binder | binding [1] | binding [2]
1 | – | periplasmic B12 binding protein BtuF (natural protein) APRVITLSPANTELAFAAGITPVGVSSYSDYPPQAQKIEQVSTWQGMNLERIVALKPDLVIAWRGGNAERQVDQLASLGIKVMWVDATSIEQIANALRQLAPWSPQPDKAEQAAQSLLDQYAQLKAQYADKPKKRVFLQFGINPPFTSGKESIQNQVLEVCGGENIFKDSRVPWPQVSREQVLARSPQAIVITGGPDQIPKIKQYWGEQLKIPVIPLTSDWFERASPRIILAAQQLCNALSQVD | binds | binds
2 | binds | BtuD subunit of BtuCD (protein, UniProt P06611 1-249) MSIVMQLQDVAESTRLGPLSGEVRAGEILHLVGPNGAGKSTLLARMAGMTSGKGSIQFAGQPLEAWSATKLALHRAYLSQQQTPPFATPVWHYLTLHQHDKTRTELLNDVAGALALDDKLGRSTNQLSGGEWQRVRLAAVVLQITPQANPAGQLLLLDEPMNSLDVAQQSALDKILSALCQQGLAIVMSSHDLNHTLRHAHRAWLLKGGKMLASGRREEVLTPPNLAQAYGMNFRRLDIEGHRMLISTI | – | –
